In paper doi:10.1101/2024.06.10.598255:
Results are given in words; binding and its absence hold for the method and conditions named. Some binding calls cover weakened binding; strength is not graded here.

The chains behind the UniProt entries cited, without tags or fusion partners. Residues count along the entry.
UniProt P29317, residues 24-976: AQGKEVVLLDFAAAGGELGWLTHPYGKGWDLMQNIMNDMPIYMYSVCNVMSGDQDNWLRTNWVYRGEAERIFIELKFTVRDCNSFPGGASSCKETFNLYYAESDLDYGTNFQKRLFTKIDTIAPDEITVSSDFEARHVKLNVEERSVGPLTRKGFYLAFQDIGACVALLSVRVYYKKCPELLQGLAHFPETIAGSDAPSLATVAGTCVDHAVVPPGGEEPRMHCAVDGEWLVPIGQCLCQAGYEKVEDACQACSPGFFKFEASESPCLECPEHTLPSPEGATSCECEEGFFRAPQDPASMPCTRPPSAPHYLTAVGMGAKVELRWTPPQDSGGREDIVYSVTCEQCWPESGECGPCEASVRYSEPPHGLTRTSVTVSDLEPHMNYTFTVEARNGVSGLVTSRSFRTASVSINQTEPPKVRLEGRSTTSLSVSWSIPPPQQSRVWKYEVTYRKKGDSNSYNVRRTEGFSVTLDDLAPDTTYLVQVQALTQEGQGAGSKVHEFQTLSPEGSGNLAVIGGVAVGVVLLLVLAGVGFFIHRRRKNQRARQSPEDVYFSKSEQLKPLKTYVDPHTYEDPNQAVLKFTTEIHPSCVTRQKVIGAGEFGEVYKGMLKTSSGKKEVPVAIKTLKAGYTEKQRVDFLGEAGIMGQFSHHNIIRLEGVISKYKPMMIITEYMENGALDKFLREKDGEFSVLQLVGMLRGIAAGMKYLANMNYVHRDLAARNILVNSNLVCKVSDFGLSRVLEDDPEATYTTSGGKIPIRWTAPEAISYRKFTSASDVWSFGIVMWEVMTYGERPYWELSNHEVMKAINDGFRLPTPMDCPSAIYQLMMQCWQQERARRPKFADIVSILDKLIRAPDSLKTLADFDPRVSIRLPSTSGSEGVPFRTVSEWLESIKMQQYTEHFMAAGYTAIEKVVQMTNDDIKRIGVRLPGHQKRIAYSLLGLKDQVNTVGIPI

What was measured:
[1] = target: EphA2-GFP (full-length EphA2 with a C-terminal turboGFP tag) (UniProt P29317); assay: SiMPull-POP (single-molecule pulldown, GFP photobleaching step counting by TIRF) in detergent micelles; EphA2-GFP solubilised with 1mM DDM from HEK293T membrane fractions, captured by a biotinylated EphA2 antibody; same conditions as in DIBMALPs (control, EA1-Fc, MβCD, both)
[2] = target: EphA2-GFP (full-length EphA2 with a C-terminal turboGFP tag) (UniProt P29317); assay: SiMPull-POP (single-molecule pulldown of polymeric nanodiscs, GFP photobleaching step counting by TIRF); EphA2-GFP in DIBMALPs (0.15% DIBMA) from HEK293T membrane fractions, captured by a biotinylated EphA2 antibody via NeutrAvidin on quartz slides; 100 pM to 5 nM sample; steps corrected for 70% GFP maturation; control, 2uM EA1-Fc, 5 mM MβCD (1 hour) or both

EphA2-GFP (full-length EphA2 with a C-terminal turboGFP tag) (from UniProt P29317 24-976) (receptor)
binding [1]: binds
binding [2]: binds
